Percent effect of library compounds

Mtb glucose medium: 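Growth of Mycobacterium tuberculosis over 3 days (7H9 medium with glucose and tyloxapol); the read-out is not stated. Concentration: 50 µM. Direction is inferred from retests: higher values go with more growth inhibition. About 69,000 compounds were tested under these conditions; 1.1% (about 760) showed 50% or more at least once.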
Mtb cholesterol medium: 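Whole-cell growth test on Mycobacterium tuberculosis, read after 4 days in a medium based on cholesterol and the lipid DPPC; the read-out is not stated. Concentration: 50 µM. Direction is inferred from retests: higher values go with more growth inhibition. About 69,000 compounds were tested under these conditions; 0.54% (about 370) showed 50% or more at least once.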

Results are given as percent effect. The controls that fix the scale are not given in the record; negative values are as filed. This is an unselected part of the compounds tested. Two or more numbers in one place are separate tests of the same structure; such repeats can differ widely.

| SMILES | Mtb glucose medium | Mtb cholesterol medium |
|---|---|---|
| `OCC1CCCN1c1cc(NCc2cccs2)ncn1` (centres unmarked) | 0.4706 | -5.195 |
| `Cn1cc(NC(=O)Cn2cc(-c3ccccc3)ncc2=O)cn1` | -41.99 | -6.041 |
| `Cc1cc(C)n(C2CN(CC(=O)NCc3ccccn3)C2)n1` | -18.25 | -10.03 |
| `N#Cc1cccc(S(=O)(=O)NC(=O)COC2CCCC2)c1` | -11.23 | -31.31 |
| `O=C(C1CCOCC1)N1CCOC(CC2CCCCC2)C1` (centres unmarked) | 26.73 | 8.896 |
| `Cc1nc(CN2CCCC(NCc3ccc4c(c3)CCO4)C2)no1` (centres unmarked) | -16.96 | -11.08 |
| `O=C(O)C(F)(F)F.[H][C@@]12COC[C@]1(CNC(=O)C1CCC1)CN(Cc1cccc(C)c1)C2` | 19.4 | 3.997 |
| `CCc1nc(-c2cncnc2C2CCNC2)no1` (centres unmarked) | -1.001 | -3.94 and -1.02 |
| `CCCN1CC(NC(=O)Nc2nc(C)n(C(C)C)n2)CC1=O` (centres unmarked) | 28.11 | -10.09 |
| `O=C1CC(NCc2ccncc2)CN1CCc1cccc(Cl)c1` (centres unmarked) | 8.494 | 8.87 |
| `O=S(=O)(N1CCCC1)N1CC(c2ccnc(Nc3ccccn3)n2)C1` | -29.73 | -13.8 |
| `[H][C@@]12COC[C@]1(c1nnc(C3CC3)o1)CN(C(=O)N(C)C)C2` | -3.721 and -0.41 | 5.775 |
| `CCc1noc(-c2cccc(OCC(=O)NC(C)C)c2)n1` | 5.333 | 3.598 |
| `[H][C@@]12CS(=O)(=O)C[C@]1([H])N(C(=O)c1cnc(C)cn1)CCN2C(=O)C(C)C` | 1.22 | 13.58 and -7.701 |
| `CCn1cnnc1CCNCc1c[nH]nc1-c1ccc(F)cc1` | -34.66 | -49.08 |
| `O=C(O)C(F)(F)F.O=C(O)C(F)(F)F.[H][C@@]12CCCO[C@]1([H])[C@@H](NC(=O)c1cccnc1)CN2Cc1cccs1` | -1.603 and 9.057 | -13.63 |
| `CN1CC2(CCN(C(=O)CCc3nc4cccnc4n3C)C2)OC1=O` (centres unmarked) | -35.69 | -31.11 |
| `CCc1nnc(SC2CCCN(c3cnn(C)c3)C2=O)n1C` (centres unmarked) | -6.032 | -14.76 |
| `Cc1cc(C2CCCN(C(=O)c3c(C)nn4cccnc34)C2)n[nH]1` (centres unmarked) | 8.778 | 9.273 |
| `O=C(O)C1CCCCN1C(=O)c1cccc(C(F)(F)F)c1` (centres unmarked) | -17.2 | -7.301 |
| `CN(C)c1ccc(CCNC(=O)NCc2ccc(N(C)C)nc2)cc1` | -1.224 | -11.61 |
| `COc1ccc(N2CCN(C(=O)OC(C)(C)C)C(C(=O)O)C2)cc1` (centres unmarked) | 13.04 | 27.89 |
| `Cc1cc(C(=O)N2CCn3cc(CN(C)C)nc3C2)no1` | -16.14 | -14.24 and 9.564 |
| `COc1ncc(C)cc1NC(=O)CCc1ccccn1` | -9.344 and 1.874 | -8.421 |
| `Cc1nn2cccnc2c1C(=O)N1CCCC(n2cccn2)C1` (centres unmarked) | 1.925 | -17.55 |
| `CC(C)Nc1nc(N2CCCC2)nc2c1CN(c1ncc(F)cn1)CC2` | 35.26 | 49.06 |
| `Cc1nc(C)n(CC2CCCN2Cc2nc(-c3ccccn3)no2)n1` (centres unmarked) | 10.64 | -11.59 |
| `NC(=O)CC1CCN(C(=O)CCOc2ccc(Cl)cc2)CC1` | -21.63 | -12.53 |
| `O=C(O)C(F)(F)F.O=C(O)C(F)(F)F.O=C(O)C(F)(F)F.[H][C@@]12C[C@@H](Oc3cccnc3)CN1CCN(c1ncc(F)cn1)C2` | 9.199 | 13.11 |
| `Cc1nc(C2CCCN(C(=O)c3cc(C(C)(C)C)on3)C2)no1` (centres unmarked) | 15.2 | -8.625 |
| `CC(C)CNC(=O)Nc1cccc(CN2CCOC2=O)c1` | 7.652 | -14.3 |
| `Cc1nc2c(c(N3CCC(CN4CCCC4=O)CC3)n1)CCNCC2` | -2.784 | -7.628 |
| `CNC(=O)CCc1cc(C)nc(C2CCN(C(=O)CN(C)C)CC2)c1` | -29.99 | -3.602 and 1.728 |
| `CC(C)c1ccc(-n2nnc(C(=O)O)c2-c2ccccn2)cc1` | 3.312 | -37.85 |
| `CCN(CC1=CCN(C)CC1)C(=O)CCOC` | 21.14 | 4.195 |
| `OCCN1CCN(Cc2coc(-c3cccc(F)c3)n2)CC1` | -10.8 | -16.38 |
| `O=C(CNC(=O)Nc1cccc(Cl)c1SC(F)F)NC1CC1` | 0.06934 and -6.67 | 9.645 |
| `Cc1nc(C2CCCN2C(=O)COCc2ccccc2)no1` (centres unmarked) | 16.88 | -9.088 |
| `Cc1nn(C)c(Oc2cccc(F)c2)c1NC(=O)C1CCOCC1` | 5.122 | 17.83 |
| `O=C(Nc1ccc2c(c1)C(=O)NC2=O)c1ccc(Cl)s1` | -7.658 | 4.662 |
| `CC(C)Sc1nnnn1C1CCCC1` | 43.83 | 10.3 |
| `CC(Nc1ccc(C(F)(F)F)cc1C#N)c1cccc(S(N)(=O)=O)c1` (centres unmarked) | 1.232 | -3.457 and -2.996 |

The last 3 entries again:

SMILES,Mtb glucose medium,Mtb cholesterol medium
O=C(Nc1ccc2c(c1)C(=O)NC2=O)c1ccc(Cl)s1,-7.658,4.662
CC(C)Sc1nnnn1C1CCCC1,43.83,10.3
CC(Nc1ccc(C(F)(F)F)cc1C#N)c1cccc(S(N)(=O)=O)c1 (centres unmarked),1.232,-3.457 and -2.996

Measurements from “University of Dundee, Small-Polar-MMV Screening Library” (2021), ChEMBL document CHEMBL3988442.